Three substances from article PMC4503747 can be followed below.

Amino acid sequences for entries named in this document (tags omitted).
UniProt P11440: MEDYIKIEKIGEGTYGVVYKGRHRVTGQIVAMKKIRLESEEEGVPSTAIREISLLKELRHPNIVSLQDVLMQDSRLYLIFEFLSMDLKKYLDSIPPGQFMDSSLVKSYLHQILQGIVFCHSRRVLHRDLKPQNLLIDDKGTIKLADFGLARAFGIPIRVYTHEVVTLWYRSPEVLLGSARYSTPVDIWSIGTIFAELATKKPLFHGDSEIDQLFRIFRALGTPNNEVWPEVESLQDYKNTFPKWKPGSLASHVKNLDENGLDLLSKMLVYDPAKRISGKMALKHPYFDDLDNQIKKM
UniProt P00546: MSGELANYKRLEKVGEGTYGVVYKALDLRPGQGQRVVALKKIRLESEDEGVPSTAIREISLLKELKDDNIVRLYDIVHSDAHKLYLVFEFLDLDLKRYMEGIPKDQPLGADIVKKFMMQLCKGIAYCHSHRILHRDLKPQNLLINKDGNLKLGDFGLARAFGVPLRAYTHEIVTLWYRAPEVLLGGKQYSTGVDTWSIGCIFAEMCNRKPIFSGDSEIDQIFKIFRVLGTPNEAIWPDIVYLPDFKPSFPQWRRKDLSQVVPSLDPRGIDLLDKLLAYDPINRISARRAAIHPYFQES

Test [1] addresses T1, IMPACT-FLAG (full-length IMPACT in pFLAG-CMV5a, expressed in N2a cells) (mouse) (UniProt O55091).
T1 sequence: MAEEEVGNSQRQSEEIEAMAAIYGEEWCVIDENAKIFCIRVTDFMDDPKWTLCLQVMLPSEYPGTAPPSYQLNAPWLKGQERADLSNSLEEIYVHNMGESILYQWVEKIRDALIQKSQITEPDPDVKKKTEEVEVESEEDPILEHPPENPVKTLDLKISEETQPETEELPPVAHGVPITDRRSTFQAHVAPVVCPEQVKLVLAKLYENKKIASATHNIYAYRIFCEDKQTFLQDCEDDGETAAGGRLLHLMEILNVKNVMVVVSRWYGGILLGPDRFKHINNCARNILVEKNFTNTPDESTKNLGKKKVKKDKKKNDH
The test can be described thus: co-IP; N2a cells transfected with IMPACT-FLAG or vector alone; lysate (50 mM Tris pH 7.4, 1 mM EDTA, 100 mM NaCl, 1% Triton X-100) pre-cleared with protein-A agarose, anti-FLAG (M2) affinity gel 1 hour at 4°C, eluted with FLAG peptide; immunoblot. Background: Immunoblotting shows a protein as a band on a membrane.

For test [2], the target named is T2, GST-IMPACT (mouse IMPACT fused to GST, expressed in yeast) (mouse) (UniProt O55091).
T2 sequence: T1 sequence
The test can be described thus: pull-down; in vivo GST pull-down: GST fusions overexpressed in yeast from a galactose-inducible promoter (yih1Δ strains; gcn1Δ strain H2556 for the fragments; also cells arrested in G1 with α-factor and released), WCE (1-2 mg) on glutathione beads, immunoblot for endogenous proteins.

Test [3] has as its target T3, GST-Yih1*H3 (D102A E106A in helix H3 of the RWD domain) (S. cerevisiae) (UniProt P25637).
T3 sequence: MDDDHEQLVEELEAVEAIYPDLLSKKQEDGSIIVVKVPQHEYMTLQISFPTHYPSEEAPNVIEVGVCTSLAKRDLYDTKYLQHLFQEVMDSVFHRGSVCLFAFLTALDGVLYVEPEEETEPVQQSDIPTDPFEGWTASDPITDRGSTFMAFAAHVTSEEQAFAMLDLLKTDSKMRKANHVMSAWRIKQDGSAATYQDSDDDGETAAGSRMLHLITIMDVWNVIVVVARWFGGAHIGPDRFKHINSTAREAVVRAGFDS
The test is described as above.

In test [4] the target is T4, GST-Yih1[133–258] (S. cerevisiae) (UniProt P25637).
T4 sequence: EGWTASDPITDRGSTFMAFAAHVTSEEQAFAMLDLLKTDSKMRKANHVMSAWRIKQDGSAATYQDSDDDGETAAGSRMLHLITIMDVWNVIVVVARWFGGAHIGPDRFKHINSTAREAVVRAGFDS
The description is as above.

For test [5], the target named is T5, GST-Yih1[2–132] (S. cerevisiae) (UniProt P25637).
T5 sequence: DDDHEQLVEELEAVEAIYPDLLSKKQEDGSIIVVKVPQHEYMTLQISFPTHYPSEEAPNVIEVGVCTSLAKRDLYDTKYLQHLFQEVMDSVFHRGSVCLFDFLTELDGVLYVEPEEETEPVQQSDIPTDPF
The test is described as above.

Test [6] addresses T6, GST-Yih1[2–171] (S. cerevisiae) (UniProt P25637).
T6 sequence: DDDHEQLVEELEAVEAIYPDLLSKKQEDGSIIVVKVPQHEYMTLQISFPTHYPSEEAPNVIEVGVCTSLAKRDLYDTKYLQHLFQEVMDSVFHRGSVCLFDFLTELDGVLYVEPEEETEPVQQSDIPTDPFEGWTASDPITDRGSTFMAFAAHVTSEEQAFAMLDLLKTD
The description is as above.

Test [7] addresses T7, GST-Yih1[68–171] (S. cerevisiae) (UniProt P25637).
T7 sequence: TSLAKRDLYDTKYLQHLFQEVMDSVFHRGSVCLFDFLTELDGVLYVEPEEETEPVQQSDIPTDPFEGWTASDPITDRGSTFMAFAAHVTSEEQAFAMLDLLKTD
Described as above.

Test [8] deals with T8, GST-Yih1[68–258] (S. cerevisiae) (UniProt P25637).
T8 sequence: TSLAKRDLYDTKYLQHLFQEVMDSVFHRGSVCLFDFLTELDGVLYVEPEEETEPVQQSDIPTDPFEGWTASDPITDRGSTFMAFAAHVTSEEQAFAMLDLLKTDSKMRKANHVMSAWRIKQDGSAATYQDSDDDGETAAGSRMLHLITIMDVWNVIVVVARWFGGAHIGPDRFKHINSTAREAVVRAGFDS
Described as above.

Test [9] addresses GST-Yih1*H2 (E87A and D90A in helix H2 of the RWD domain) (S. cerevisiae) (UniProt P25637). The description is as above.
In test [10] the target is T9, GST-Yih1 purified from E. coli (S. cerevisiae) (UniProt P25637).
T9 sequence: T3 sequence with A102D, A106E
The test can be described thus: pull-down; purified GST-Yih1 (2, 4 and 6 μg) or GST alone (6 μg) immobilized on glutathione-Sepharose beads blocked with 0.5% BSA, incubated with yeast WCE of a yih1Δ strain (MSY-Y2) for 1 hour at 4°C; 30 mM HEPES pH 7.4, 200 mM NaCl, 1 mM EDTA, 1 mM DTT, 0.5% Nonidet P40; immunoblot; only the target purified.

Positions count from the first letter of the chain named. Results are given in words; binding and its absence hold for the method and conditions named. Binding seen in cells or lysates may run through a third protein. Some entries that bind do so weakly or less than the wild type. For some of these results: Tags and fused reporters may be left off the sequences shown.

As for “CDK1 (endogenous, mouse N2a cells) (from UniProt P11440 1-297)”, the binding result in test [1] is on record as “binds”.

On to “Cdc28 (endogenous, yeast whole cell extract) (from UniProt P00546 1-298)”, for which the binding result in [2], in [3], in test [4], in test [5], in test [6] and in test [7] was “binds” in each case. Moreover, the binding result in [8] was “binds”.

For “Histone-H3 (endogenous, yeast whole cell extract) (from UniProt P61830 1-136)”, the binding entry in test [9] is “no binding”; in test [10], “no binding (tested: 2, 4 and 6 μg GST-Yih1)”.
